# This is one part of the list.
# B1: GS13971A-bth-447-22-447 (Bacteroides thetaiotaomicron) (protein)
# chain: EDVDNERSKGMFSASQSGFSTIEVYDLGPLNKIDLSIAKAGLEDTGGTVTFSVEQSLLDSLNNADGTSYQLLPPECYTIENATYSVSPGGDRRVTGGSLVYDPHKIYNLCGFDELKYVLPLRVSSTGTPMNSDRTATLYGFIVKEAIVRLASTGGDFVVEGGTTTSPMNLDTEISFENEWDLTTSFATKGADYVDNYNSANSTYYIPLPSDFYTLPDVTIAKGKTTGGSAISLLGETLPPGNYLLPVSLGGLSGQGDASINIDKETVANYFVIKQGGPINRDHWTVTANTEEKTGEVSAAYPHNGQTISLIDGEINTFWHSKWQGGEVAPPYEIILDMGKENSVSQLGLIARQNALTSMNLEIYAGDDGETWNLIGKYFFDGSIKTEQMVPVKACDARWIRIYIPTLGSGSSVGHLAEIYVYGTDK
# Assays:
# Test in all cases: glycan array binding signal (z-score within array); higher = stronger binding
# Conditions in all cases: glycan notation: IUPAC condensed, linker removed
# [1] = biological target: Gal(b1-3)GalNAc(b1-3)Gal(a1-4)Gal(b1-4)Glc
# Method in brief: (§1)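 Glycan array data were curated from 3228 arrays in the Consortium for Functional Glycomics database and kept only where the protein sequence was available. Glycan names were converted to IUPAC-condensed notation, and columns mapping to the same glycan were averaged. The binding signal is a within-array Z-score, averaged across arrays of the same protein sequence at different concentrations or buffers and across linkers. Negative Z-scores can be read as non-binding.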
# [2] = biological target: Gal(b1-3)GalNAc(b1-4)Gal(b1-4)Glc
# Method in brief: as §1
# [3] = biological target: Gal(b1-3)GalNAc(b1-4)[Neu5Ac(a2-3)]Gal(b1-4)Glc
# Method in brief: as §1
# Gal(b1-3)GlcNAc = biological target: Gal(b1-3)GlcNAc
# Method in brief: as §1
# [4] = biological target: Gal(b1-3)GlcNAc(a1-3)Gal(b1-4)GlcNAc
# Method in brief: as §1
# [5] = biological target: Gal(b1-3)GlcNAc(a1-6)Gal(b1-4)GlcNAc
# Method in brief: as §1
# Gal(b1-3)GlcNAc(b1-2)Man = biological target: Gal(b1-3)GlcNAc(b1-2)Man
# Method in brief: as §1
# [6] = biological target: Gal(b1-3)GlcNAc(b1-2)Man(a1-3)[Gal(b1-3)GlcNAc(b1-2)Man(a1-6)]Man(b1-4)GlcNAc(b1-4)GlcNAc
# Method in brief: as §1
# [7] = biological target: Gal(b1-3)GlcNAc(b1-2)Man(a1-3)[Gal(b1-3)GlcNAc(b1-2)Man(a1-6)]Man(b1-4)GlcNAc(b1-4)[Fuc(a1-6)]GlcNAc
# Method in brief: as §1
# [8] = biological target: Gal(b1-3)GlcNAc(b1-2)Man(a1-3)[GlcNAc(b1-4)][Gal(b1-3)GlcNAc(b1-2)Man(a1-6)]Man(b1-4)GlcNAc(b1-4)GlcNAc
# Method in brief: as §1
# [9] = biological target: Gal(b1-3)GlcNAc(b1-2)[Gal(b1-3)GlcNAc(b1-6)]Man(a1-6)[Gal(b1-3)GlcNAc(b1-2)Man(a1-3)]Man(b1-4)GlcNAc(b1-4)GlcNAc
# Method in brief: as §1
# [10] = biological target: Gal(b1-3)GlcNAc(b1-3)Gal(b1-3)GlcNAc
# Method in brief: as §1
# [11] = biological target: Gal(b1-3)GlcNAc(b1-3)Gal(b1-4)Glc
# Method in brief: as §1
# [12] = biological target: Gal(b1-3)GlcNAc(b1-3)Gal(b1-4)GlcNAc
# Method in brief: as §1
# [13] = biological target: Gal(b1-3)GlcNAc(b1-3)Gal(b1-4)GlcNAc(b1-2)Man(a1-3)[Gal(b1-3)GlcNAc(b1-3)Gal(b1-4)GlcNAc(b1-2)Man(a1-6)]Man(b1-4)GlcNAc(b1-4)GlcNAc
# Method in brief: as §1
# [14] = biological target: Gal(b1-3)GlcNAc(b1-3)Gal(b1-4)GlcNAc(b1-2)[Gal(b1-3)GlcNAc(b1-3)Gal(b1-4)GlcNAc(b1-6)]Man(a1-6)[Gal(b1-3)GlcNAc(b1-3)Gal(b1-4)GlcNAc(b1-2)Man(a1-3)]Man(b1-4)GlcNAc(b1-4)[Fuc(a1-6)]GlcNAc
# Method in brief: as §1
# [15] = biological target: Gal(b1-3)GlcNAc(b1-3)Gal(b1-4)GlcNAc(b1-3)Gal(b1-4)GlcNAc(b1-2)[Gal(b1-3)GlcNAc(b1-3)Gal(b1-4)GlcNAc(b1-3)Gal(b1-4)GlcNAc(b1-6)]Man(a1-6)[Gal(b1-3)GlcNAc(b1-3)Gal(b1-4)GlcNAc(b1-3)Gal(b1-4)GlcNAc(b1-2)Man(a1-3)]Man(b1-4)GlcNAc(b1-4)[Fuc(a1-6)]GlcNAc
# Method in brief: as §1
# [16] = biological target: Gal(b1-3)GlcNAc(b1-3)Gal(b1-4)GlcNAc(b1-6)[Gal(b1-3)GlcNAc(b1-3)]Gal(b1-4)Glc
# Method in brief: as §1
# [17] = biological target: Gal(b1-3)GlcNAc(b1-3)Gal(b1-4)[Fuc(a1-3)]GlcNAc
# Method in brief: as §1
# [18] = biological target: Gal(b1-3)GlcNAc(b1-3)Gal(b1-4)[Fuc(a1-3)]GlcNAc(b1-6)[Gal(b1-3)GlcNAc(b1-3)]Gal(b1-4)Glc
# Method in brief: as §1
# [19] = biological target: Gal(b1-3)GlcNAc(b1-3)GalNAc
# Method in brief: as §1
# [20] = biological target: Gal(b1-3)GlcNAc(b1-6)Gal(b1-4)GlcNAc
# Method in brief: as §1
# [21] = biological target: Gal(b1-3)GlcNAc(b1-6)GalNAc
# Method in brief: as §1
# [22] = biological target: Gal(b1-3)GlcNAc(b1-6)[Gal(b1-3)]GalNAc
# Method in brief: as §1
# Gal(b1-3)GlcNAc6S = biological target: Gal(b1-3)GlcNAc6S
# Method in brief: as §1
# [23] = biological target: Gal(b1-3)[Fuc(a1-4)]GlcNAc
# Method in brief: as §1
# [24] = biological target: Gal(b1-3)[Fuc(a1-4)]GlcNAc(b1-2)Man
# Method in brief: as §1
# [25] = biological target: Gal(b1-3)[Fuc(a1-4)]GlcNAc(b1-2)Man(a1-3)[Gal(b1-3)[Fuc(a1-4)]GlcNAc(b1-2)Man(a1-6)]Man(b1-4)GlcNAc(b1-4)[Fuc(a1-6)]GlcNAc
# Method in brief: as §1
# [26] = biological target: Gal(b1-3)[Fuc(a1-4)]GlcNAc(b1-3)Gal(b1-3)[Fuc(a1-4)]GlcNAc
# Method in brief: as §1
# [27] = biological target: Gal(b1-3)[Fuc(a1-4)]GlcNAc(b1-3)Gal(b1-4)[Fuc(a1-3)]GlcNAc
# Method in brief: as §1
# [28] = biological target: Gal(b1-3)[Fuc(a1-4)]GlcNAc(b1-6)GalNAc
# Method in brief: as §1
# [29] = biological target: Gal(b1-3)[GlcNAc(b1-6)]GalNAc
# Method in brief: as §1
# [30] = biological target: Gal(b1-3)[Neu5Ac(a2-6)]GalNAc
# Method in brief: as §1
# [31] = biological target: Gal(b1-3)[Neu5Ac(a2-6)]GlcNAc(b1-4)Gal(b1-4)Glc
# Method in brief: as §1
# [32] = biological target: Gal(b1-3)[Neu5Ac(b2-6)]GalNAc
# Method in brief: as §1
# Gal(b1-4)Gal = biological target: Gal(b1-4)Gal
# Method in brief: as §1
# [33] = biological target: Gal(b1-4)GalNAc(a1-3)[Fuc(a1-2)]Gal(b1-4)GlcNAc
# Method in brief: as §1
# [34] = biological target: Gal(b1-4)GalNAc(b1-3)[Fuc(a1-2)]Gal(b1-4)GlcNAc
# Method in brief: as §1
binder,measurement,setting,value
B1,glycan array binding signal (z-score),[1],-0.541
same,glycan array binding signal (z-score),[2],1.41
same,glycan array binding signal (z-score),[3],-0.575
same,glycan array binding signal (z-score),Gal(b1-3)GlcNAc,-0.27
same,glycan array binding signal (z-score),[4],-0.741
same,glycan array binding signal (z-score),[5],-0.86
same,glycan array binding signal (z-score),Gal(b1-3)GlcNAc(b1-2)Man,0.612
same,glycan array binding signal (z-score),[6],0.413
same,glycan array binding signal (z-score),[7],-0.123
same,glycan array binding signal (z-score),[8],0.373
same,glycan array binding signal (z-score),[9],1.63
same,glycan array binding signal (z-score),[10],-0.193
same,glycan array binding signal (z-score),[11],-0.948
same,glycan array binding signal (z-score),[12],-0.916
same,glycan array binding signal (z-score),[13],-0.482
same,glycan array binding signal (z-score),[14],0.183
same,glycan array binding signal (z-score),[15],0.652
same,glycan array binding signal (z-score),[16],-0.168
same,glycan array binding signal (z-score),[17],-0.146
same,glycan array binding signal (z-score),[18],-0.071
same,glycan array binding signal (z-score),[19],0.748
same,glycan array binding signal (z-score),[20],-0.921
same,glycan array binding signal (z-score),[21],-0.786
same,glycan array binding signal (z-score),[22],-0.77
same,glycan array binding signal (z-score),Gal(b1-3)GlcNAc6S,-1.01
same,glycan array binding signal (z-score),[23],0.215
same,glycan array binding signal (z-score),[24],-0.081
same,glycan array binding signal (z-score),[25],0.287
same,glycan array binding signal (z-score),[26],-0.179
same,glycan array binding signal (z-score),[27],1.09
same,glycan array binding signal (z-score),[28],1.25
same,glycan array binding signal (z-score),[29],0.107
same,glycan array binding signal (z-score),[30],-0.988
same,glycan array binding signal (z-score),[31],-0.915
same,glycan array binding signal (z-score),[32],-0.965
same,glycan array binding signal (z-score),Gal(b1-4)Gal,-0.961
same,glycan array binding signal (z-score),[33],-0.965
same,glycan array binding signal (z-score),[34],0.667

# 2 records picked at random from those above, as already listed:
binder,measurement,setting,value
B1,glycan array binding signal (z-score),[15],0.652
same,glycan array binding signal (z-score),[21],-0.786
